Assay results from patent publication US6444234B1, “Compositions for rapid and non-irritating transdermal delivery of pharmaceutically active agents and methods for formulating such compositions and delivery thereof” (priority 1998, dated 2002).
“And” between values parts separate entries of the source, which are not always exact repeats. Identical values can stand only once. Like-named read-outs stand apart in the source and are kept apart here.

Legend:
[1] = both formulations (SDS-L and SDS-S), stated with the pH values
hairless rat skin = conditions: for Amount of morphine sulfate through 1 cm^2 of hairless rat skin, mean: mean of 3; for Amount of morphine sulfate through 1 cm^2 of hairless rat skin: single samples s-1 to s-3
[2] = from SDS-L (closed condition), 0 hr
[3] = from SDS-L (closed condition), 3 hr
[4] = from SDS-L (closed condition), 6 hr
[5] = from SDS-L (open condition), 0 hr
[6] = from SDS-L (open condition), 3 hr
[7] = from SDS-L (open condition), 6 hr
[8] = from SDS-S (closed condition), 0 hr
[9] = from SDS-S (closed condition), 3 hr
[10] = from SDS-S (closed condition), 6 hr

Question: With `CN1CC[C@]23c4c5ccc(O)c4O[C@H]2[C@@H](O)C=C[C@H]3[C@H]1C5.O=S(=O)(O)O` [morphine sulfate] as the compound, how does the “toxicity to the skin” value [1] read?
Answer: non-toxic to the skin

Question: And the “time after which morphine sulfate is detected in the receptor solution” value (hairless rat skin; both SDS-L and SDS-S)?
Answer: > 6 h

Question: What about the “Amount of morphine sulfate through 1 cm^2 of hairless rat skin, mean” value (“Amount … mean” for short) (hairless rat skin; [2]) of the same compound?
Answer: 0 ug/cm^2

Question: And the “Amount of morphine sulfate through 1 cm^2 of hairless rat skin” value (hairless rat skin; [2])?
Answer: 0 ug/cm^2

Question: And the “Amount … mean” value (hairless rat skin; [3])?
Answer: 0 ug/cm^2

Question: What about the “Amount of morphine sulfate through 1 cm^2 of hairless rat skin” value (hairless rat skin; [3]) of the same compound?
Answer: 0 ug/cm^2

Question: What about the “Amount … mean” value (hairless rat skin; [4]) of the same compound?
Answer: 0 ug/cm^2

Question: What about the “Amount of morphine sulfate through 1 cm^2 of hairless rat skin” value (hairless rat skin; [4]) of the same compound?
Answer: 0 ug/cm^2

Question: What about the “Amount … mean” value (hairless rat skin; from SDS-L (closed condition), 22 hr) of the same compound?
Answer: 12 ug/cm^2

Question: What about the “Amount … mean” value (hairless rat skin; from SDS-L (closed condition), 26 hr) of the same compound?
Answer: 126 ug/cm^2

Question: And the “Amount … mean” value (hairless rat skin; from SDS-L (closed condition), 29 hr)?
Answer: 270 ug/cm^2

Question: And the “Amount … mean” value (hairless rat skin; [5])?
Answer: 0 ug/cm^2

Question: And the “Amount of morphine sulfate through 1 cm^2 of hairless rat skin” value (hairless rat skin; [5])?
Answer: 0 ug/cm^2

Question: What about the “Amount … mean” value (hairless rat skin; [6]) of the same compound?
Answer: 0 ug/cm^2

Question: And the “Amount of morphine sulfate through 1 cm^2 of hairless rat skin” value (hairless rat skin; [6])?
Answer: 0 ug/cm^2

Question: And the “Amount … mean” value (hairless rat skin; [7])?
Answer: 0 ug/cm^2

Question: And the “Amount of morphine sulfate through 1 cm^2 of hairless rat skin” value (hairless rat skin; [7])?
Answer: 0 ug/cm^2

Question: What about the “Amount … mean” value (hairless rat skin; from SDS-L (open condition), 22 hr) of the same compound?
Answer: 44 ug/cm^2

Question: And the “Amount … mean” value (hairless rat skin; from SDS-L (open condition), 26 hr)?
Answer: 155 ug/cm^2

Question: What about the “Amount … mean” value (hairless rat skin; from SDS-L (open condition), 29 hr) of the same compound?
Answer: 275 ug/cm^2

Question: And the “Amount … mean” value (hairless rat skin; [8])?
Answer: 0 ug/cm^2

Question: And the “Amount of morphine sulfate through 1 cm^2 of hairless rat skin” value (hairless rat skin; [8])?
Answer: 0 ug/cm^2

Question: And the “Amount … mean” value (hairless rat skin; [9])?
Answer: 0 ug/cm^2

Question: What about the “Amount of morphine sulfate through 1 cm^2 of hairless rat skin” value (hairless rat skin; [9]) of the same compound?
Answer: 0 ug/cm^2

Question: And the “Amount … mean” value (hairless rat skin; [10])?
Answer: 0 ug/cm^2

Question: What about the “Amount of morphine sulfate through 1 cm^2 of hairless rat skin” value (hairless rat skin; [10]) of the same compound?
Answer: 0 ug/cm^2

Question: What about the “Amount … mean” value (hairless rat skin; from SDS-S (closed condition), 22 hr) of the same compound?
Answer: 802 ug/cm^2

Question: And the “Amount of morphine sulfate through 1 cm^2 of hairless rat skin” value (hairless rat skin; from SDS-S (closed condition), 22 hr, sulfate)?
Answer: 717 ug/cm^2 and 599 ug/cm^2 and 1091 ug/cm^2

Question: What about the “Amount … mean” value (hairless rat skin; from SDS-S (closed condition), 26 hr) of the same compound?
Answer: 1079 ug/cm^2

Question: And the “Amount of morphine sulfate through 1 cm^2 of hairless rat skin” value (hairless rat skin; from SDS-S (closed condition), 26 hr, sulfate)?
Answer: 1040 ug/cm^2 and 940 ug/cm^2 and 1256 ug/cm^2

Question: And the “Amount … mean” value (hairless rat skin; from SDS-S (closed condition), 29 hr)?
Answer: 1248 ug/cm^2

Question: What about the “Amount of morphine sulfate through 1 cm^2 of hairless rat skin” value (hairless rat skin; from SDS-S (closed condition), 29 hr, sulfate) of the same compound?
Answer: 1256 ug/cm^2 and 1112 ug/cm^2 and 1375 ug/cm^2
